The other results are listed elsewhere or left out. Baselines shift from plate to plate; read single values as rough.

In the first experiment the test system is E18 rat cortical neuron-glia co-culture. Nature of the experiment: total nuclei (DAPI) / Olig2+ nuclei (ratio); higher = more depletion of OPC/OL lineage cells. The settings on record: 1 µM; treatment time: 8 days (DIV5-DIV13). The method, then:
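Primary E18 rat cortical co-cultures (neurons, astrocytes, OPC/OLs) in 96-well plates. NIH Clinical Collection compounds were added on DIV5 in myelination medium at 5 and 1 µM for 8 days, then cells were fixed on DIV13 and stained for MBP, Olig2 and DAPI. Myelination (contiguous aligned MBP fiber length per Olig2+ nucleus) was normalised to plate controls (0.1% DMSO = 0, 1 µM DAPT = 100) as % of DAPT. Each value is from duplicate wells with 4 image fields each. Fiber length/MBP is the fiber score divided by the MBP differentiation score; DAPI/Olig2 is the ratio of total to Olig2+ nuclei.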
For `Cc1ccc(O)c([C@H](CCN(C(C)C)C(C)C)c2ccccc2)c1` [Tolterodine], the total nuclei came out at 3.73.

Turning to `COC(=O)C1=C(C)NC(C)=C(C(=O)OC2CCCN(Cc3ccccc3)C2)C1c1cccc([N+](=O)[O-])c1` (stereo unspecified) [Benidipine], the total nuclei amounted to 5.21.

Take `O=C(CCNNC(=O)c1ccncc1)NCc1ccccc1` [Nialamide]: the total nuclei stood at 2.82.

Turning to `CCc1c2c(nc3ccc(OC(=O)N4CCC(N5CCCCC5)CC4)cc13)-c1cc3c(c(=O)n1C2)COC(=O)[C@]3(O)CC` [Irinotecan], the total nuclei stood at 30.5.

Take `O=C(O)COCCN1CCN(C(c2ccccc2)c2ccc(Cl)cc2)CC1` (stereo unspecified) [Cetirizine]: the total nuclei came to 2.7.

`CN(C)CCN(Cc1ccccc1)c1ccccn1` [Tripelennamine]: the total nuclei stood at 4.85.

`Cn1nnc2c(C(N)=O)ncn2c1=O` [Temozolomide]: the total nuclei came out at 3.34.

Regarding `CC(C)(O)c1ccccc1CC[C@@H](SCC1(CC(=O)O)CC1)c1cccc(/C=C/c2ccc3ccc(Cl)cc3n2)c1` [Montelukast], the total nuclei is 3.17.

Regarding `CCC1=C(C)CN(C(=O)NCCc2ccc(S(=O)(=O)NC(=O)N[C@H]3CC[C@H](C)CC3)cc2)C1=O` [Glimepiride], the total nuclei amounted to 3.51.

Regarding `O=C(c1ccccc1)c1ccc2n1CCC2C(=O)O` (stereo unspecified) [Ketorolac], the total nuclei was found to be 2.64.

Consider `CS(=O)(=O)c1ccc(-c2cc(Br)sc2-c2ccc(F)cc2)cc1`, for which the total nuclei was determined as 3.73.

Take `CC[C@H](C)C(=O)O[C@H]1C[C@H](O)C=C2C=C[C@H](C)[C@H](CC[C@@H](O)C[C@@H](O)CC(=O)O)[C@H]21` [Pravastatin]: the total nuclei came out at 5.63.

On to `NC(=O)OCC(COC(N)=O)c1ccccc1` [Felbamate], for which the total nuclei is 2.7.

Consider `CC1=C(/C=C/C(C)=C/C=C/C(C)=C\C(=O)O)C(C)(C)CCC1` [Isotretinoin], for which the total nuclei turned out to be 3.8.

Turning to `CN(C)CCCN1c2ccccc2CCc2ccccc21` [Imipramine], the total nuclei was found to be 2.97.

Turning to `O=C(O)c1cc(-c2ccc(F)cc2F)ccc1O` [Diflunisal], the total nuclei is 3.73.

For `NC[C@H](O)c1ccc(O)c(O)c1` [Norepinephrine], the total nuclei was 3.

For the compound `C#C[C@]1(O)CC[C@H]2[C@@H]3CCC4=CC(=O)CC[C@@H]4[C@H]3CC[C@@]21CC` [Levonorgestrel], the total nuclei was determined as 3.3.

On to `C[C@H]1COc2c(C3(N)CC3)c(F)cc3c(=O)c(C(=O)O)cn1c23` [Pazufloxacin], for which the total nuclei was found to be 5.3.

For `CC(C)(C)NCC(O)COc1cccc2c1CC(O)C(O)C2` (stereo unspecified) [Nadolol], the total nuclei was found to be 3.72.

In the case of `OC(CCN1CCCCC1)(c1ccccc1)C1CCCCC1` (stereo unspecified) [Trihexyphenidyl], the total nuclei was 3.68.

The same experiment, now with this note: 5 µM; treatment time: 8 days (DIV5-DIV13).
For the compound `Cc1ccc(O)c([C@H](CCN(C(C)C)C(C)C)c2ccccc2)c1` [Tolterodine], the total nuclei was more than 40.

Consider `COC(=O)C1=C(C)NC(C)=C(C(=O)OC2CCCN(Cc3ccccc3)C2)C1c1cccc([N+](=O)[O-])c1` (stereo unspecified) [Benidipine], for which the total nuclei is 35.9.

Turning to `O=C(CCNNC(=O)c1ccncc1)NCc1ccccc1` [Nialamide], the total nuclei is 2.8.

In the case of `CCc1c2c(nc3ccc(OC(=O)N4CCC(N5CCCCC5)CC4)cc13)-c1cc3c(c(=O)n1C2)COC(=O)[C@]3(O)CC` [Irinotecan], the total nuclei was more than 40.

For the compound `O=C(O)COCCN1CCN(C(c2ccccc2)c2ccc(Cl)cc2)CC1` (stereo unspecified) [Cetirizine], the total nuclei was 2.8.

For `CN(C)CCN(Cc1ccccc1)c1ccccn1` [Tripelennamine], the total nuclei was 4.6.

As to `Cn1nnc2c(C(N)=O)ncn2c1=O` [Temozolomide], the total nuclei was 4.

As to `CC(C)(O)c1ccccc1CC[C@@H](SCC1(CC(=O)O)CC1)c1cccc(/C=C/c2ccc3ccc(Cl)cc3n2)c1` [Montelukast], the total nuclei is more than 40.

As for `CCC1=C(C)CN(C(=O)NCCc2ccc(S(=O)(=O)NC(=O)N[C@H]3CC[C@H](C)CC3)cc2)C1=O` [Glimepiride], the total nuclei stood at 4.2.

For `O=C(c1ccccc1)c1ccc2n1CCC2C(=O)O` (stereo unspecified) [Ketorolac], the total nuclei was 2.8.

Regarding `CC[C@H](C)C(=O)O[C@H]1C[C@H](O)C=C2C=C[C@H](C)[C@H](CC[C@@H](O)C[C@@H](O)CC(=O)O)[C@H]21` [Pravastatin], the total nuclei amounted to 6.2.

As to `NC(=O)OCC(COC(N)=O)c1ccccc1` [Felbamate], the total nuclei was found to be 2.8.

In the case of `CC1=C(/C=C/C(C)=C/C=C/C(C)=C\C(=O)O)C(C)(C)CCC1` [Isotretinoin], the total nuclei was 4.3.

On to `CN(C)CCCN1c2ccccc2CCc2ccccc21` [Imipramine], for which the total nuclei stood at 3.3.

With `O=C(O)c1cc(-c2ccc(F)cc2F)ccc1O` [Diflunisal], the total nuclei worked out at 4.2.

On to `NC[C@H](O)c1ccc(O)c(O)c1` [Norepinephrine], for which the total nuclei worked out at 2.8.

On to `C#C[C@]1(O)CC[C@H]2[C@@H]3CCC4=CC(=O)CC[C@@H]4[C@H]3CC[C@@]21CC` [Levonorgestrel], for which the total nuclei worked out at 4.6.

With `C[C@H]1COc2c(C3(N)CC3)c(F)cc3c(=O)c(C(=O)O)cn1c23` [Pazufloxacin], the total nuclei came out at 5.7.

For `CC(C)(C)NCC(O)COc1cccc2c1CC(O)C(O)C2` (stereo unspecified) [Nadolol], the total nuclei was 3.4.

In the case of `OC(CCN1CCCCC1)(c1ccccc1)C1CCCCC1` (stereo unspecified) [Trihexyphenidyl], the total nuclei is 4.1.

(Values after the supplement of paper PMC4840960.)
